The record followed here is doi:10.1101/2021.12.08.471779.

The chains behind the UniProt entries cited, without tags or fusion partners. Where a name states a change or a piece, a line headed by the entry shows the natural chain unless it says otherwise.
UniProt P02929, whole entry, looked up, stated change not applied: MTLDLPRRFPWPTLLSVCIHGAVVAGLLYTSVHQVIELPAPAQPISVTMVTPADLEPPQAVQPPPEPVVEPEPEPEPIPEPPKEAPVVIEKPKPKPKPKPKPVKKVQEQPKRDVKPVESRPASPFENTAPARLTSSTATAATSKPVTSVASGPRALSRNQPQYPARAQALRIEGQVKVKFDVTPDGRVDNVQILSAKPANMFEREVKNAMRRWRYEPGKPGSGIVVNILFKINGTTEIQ

Holding throughout (assay): cross-linking
Experiment [1] has as its target T1, FepA A33C (Escherichia coli K-12) (UniProt P05825).
T1 sequence: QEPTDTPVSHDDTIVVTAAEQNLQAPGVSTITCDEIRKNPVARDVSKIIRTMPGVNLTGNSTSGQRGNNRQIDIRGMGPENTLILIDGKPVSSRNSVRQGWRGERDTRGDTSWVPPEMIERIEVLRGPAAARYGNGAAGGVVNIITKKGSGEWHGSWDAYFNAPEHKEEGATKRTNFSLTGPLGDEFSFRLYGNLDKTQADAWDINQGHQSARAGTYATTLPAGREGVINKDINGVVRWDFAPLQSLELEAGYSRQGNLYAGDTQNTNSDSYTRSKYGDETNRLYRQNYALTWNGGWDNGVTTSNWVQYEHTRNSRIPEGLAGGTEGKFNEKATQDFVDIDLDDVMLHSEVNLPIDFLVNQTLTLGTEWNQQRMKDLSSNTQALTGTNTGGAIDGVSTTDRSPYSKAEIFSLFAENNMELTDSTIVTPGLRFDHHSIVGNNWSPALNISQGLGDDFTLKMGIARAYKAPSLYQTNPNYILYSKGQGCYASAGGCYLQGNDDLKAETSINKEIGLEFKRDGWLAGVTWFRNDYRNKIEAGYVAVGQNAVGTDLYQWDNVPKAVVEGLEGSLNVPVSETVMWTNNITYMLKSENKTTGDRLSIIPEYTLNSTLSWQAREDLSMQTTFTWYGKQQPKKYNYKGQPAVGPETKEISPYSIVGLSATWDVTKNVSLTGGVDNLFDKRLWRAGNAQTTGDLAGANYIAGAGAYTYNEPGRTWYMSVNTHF

For experiment [2], the target named is T2, FepA D618C (Escherichia coli K-12) (UniProt P05825).
T2 sequence: T1 sequence with C33A, D618C

The target in experiment [3] is T3, FepA E576C (Escherichia coli K-12) (UniProt P05825).
T3 sequence: T1 sequence with C33A, E576C

Positions count from the first letter of the chain named. No constants are given. Whether binding was seen depends on the method and setting. Binding seen in cells or lysates may run through a third protein. Some binding calls cover weakened binding; strength is not graded here.

“TonB C18G A209C (from UniProt P02929 1-239)”: the binding result in experiment [1], in experiment [2] and in experiment [3] was “no binding” throughout.
“TonB C18G Q160C (from UniProt P02929 1-239)”: the results for the binding entry in experiment [1], in experiment [2] and in experiment [3] were “binds”, “no binding” and “no binding”, respectively.
On to “TonB C18G R204C (from UniProt P02929 1-239)”, for which the binding result in experiment [1] is given as “binds”.
Turning to “TonB C18G V206C (from UniProt P02929 1-239)”, the binding result in experiment [1], in experiment [2] and in experiment [3] was “no binding” throughout.
